From patent US20060246471A1 (published 2006)
Results are given in words; binding and its absence hold for the method and conditions named. Some results given as binding are weak or reduced against the parent protein; the word gives no strength.

By UniProt entry, the sequences of proteins in these tests, tags left out. Residues count along the entry.
UniProt P98170, residues 252-348: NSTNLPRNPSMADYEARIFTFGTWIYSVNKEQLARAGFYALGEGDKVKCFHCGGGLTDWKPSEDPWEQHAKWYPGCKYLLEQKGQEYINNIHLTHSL

What was measured:
Experiment in all cases: fluorescence polarization
[1] = molecular target: T1, MLBIR-Q (C-terminally truncated version of ML-IAP-BIR with the same number of amino acids as MLXBIR3 and MLXBIR3SG) (human) (UniProt Q96CA5)
T1 sequence (looked up): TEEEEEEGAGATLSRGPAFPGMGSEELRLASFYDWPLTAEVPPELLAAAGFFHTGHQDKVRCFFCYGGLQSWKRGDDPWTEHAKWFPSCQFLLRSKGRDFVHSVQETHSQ

[2] = molecular target: T2, MLXBIR3SG (ML-IAP chimera: ML-IAP framework with XIAP-BIR3 residues 336-348 in place of 160-179, and S150G)
T2 sequence: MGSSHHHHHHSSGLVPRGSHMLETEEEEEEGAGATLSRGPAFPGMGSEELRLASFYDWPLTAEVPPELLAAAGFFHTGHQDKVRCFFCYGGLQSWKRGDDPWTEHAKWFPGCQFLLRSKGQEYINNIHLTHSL

[3] = molecular target: T3, ML-IAP-BIR (amino acids 63-179 of accession number BIR7_HUMAN), bacterially expressed from pET15b (human) (UniProt Q96CA5)
T3 sequence (looked up): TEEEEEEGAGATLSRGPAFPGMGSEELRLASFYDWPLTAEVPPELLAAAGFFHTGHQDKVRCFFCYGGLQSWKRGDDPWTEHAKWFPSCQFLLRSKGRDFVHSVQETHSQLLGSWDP

[4] = molecular target: MLXBIR3 (ML-IAP-BIR with amino acids 160-179 replaced by amino acids 336-348 of XIAP-BIR3) (human) (UniProt Q96CA5+P98170)
[5] = molecular target: XIAP-BIR3 (third BIR of XIAP, residues 252-348) (human) (UniProt P98170)

binding [1]: binds | binding [2]: binds | binding [3]: binds | binding [4]: binds | binding [5]: binds
Binder: AVPFAK (5-carboxyfluorescein (5-FAM) on Lys 6) [5-carboxyflourescein-conjugated AVPFAK(5-FAM)K (Hid-FAM)]
